Inconclusive means that the source gave no clear call. Such entries were picked first, then a sample of the others. For part of these data: Where the call is inconclusive, the potency comes from a doubtful curve fit. Activity calls are given as the source filed them. The call rests on the fitted dose curve; in most records, active means well fitted curve in the direction sought with a large enough effect; inconclusive means small, poorly fitted or top-dose-only effect, or another doubt; inactive means no such curve, though single readings can be large; an effect the other way counts as inactive or inconclusive.
Key:
[1] = qHTS of pediatric cancer cell lines to identify multiple opportunities for drug repurposing: Confirmatory screen for RD cells (AID 1347124); settings: RD rhabdomyosarcoma cell viability; activity change, negative = cytotoxic: at 45.9 µM (top of the series);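 further: cells exposed to compound for 48 h before viability readout; nearly all actives have a fitted effect of over 65% in size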; further: potency means the concentration at half of the fitted maximal effect
How it was run: (§1)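 Cells (500-1,000/well) rested 5 h, then received compounds for 48 h; metabolically active cells were measured by CellTiter-Glo luminescence. Final concentrations spanned up to 46 µM (MIPE, 11-point) or 0.59 nM-46 µM (NPC, 8-point) in primary screens, 11-point in follow-ups.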

[2] = qHTS of pediatric cancer cell lines to identify multiple opportunities for drug repurposing: Confirmatory screen for Rh18 cells (AID 1347125); settings: Rh18 rhabdomyosarcoma cells, viability; activity change, negative = cytotoxic: at 45.9 µM (top of the series); further: nearly all actives have a fitted effect of over 55% in size; further: potency means the concentration at half of the fitted maximal effect
How it was run: as §1

[3] = qHTS of pediatric cancer cell lines to identify multiple opportunities for drug repurposing: Confirmatory screen for Rh30 cells (AID 1347126); further: nearly all actives have a fitted effect of over 55% in size; further: potency means the concentration at half of the fitted maximal effect
How it was run: as §1

[4] = qHTS of pediatric cancer cell lines to identify multiple opportunities for drug repurposing: Confirmatory screen for Saos-2 cells (AID 1347127); further: nearly all actives have a fitted effect of over 60% in size; further: potency means the concentration at half of the fitted maximal effect
How it was run: as §1

[5] = qHTS of pediatric cancer cell lines to identify multiple opportunities for drug repurposing: Confirmatory screen for control Hh wild type fibroblast cells (AID 1347121); further: nearly all actives have a fitted effect of over 70% in size; further: potency means the concentration at half of the fitted maximal effect
How it was run: as §1

[6] = qHTS of pediatric cancer cell lines to identify multiple opportunities for drug repurposing: Confirmatory screen for U-2 OS cells (AID 1347122); further: nearly all actives have a fitted effect of over 65% in size
How it was run: as §1

[7] = qHTS of pediatric cancer cell lines to identify multiple opportunities for drug repurposing: Confirmatory screen for Rh41 cells (AID 1347123);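 further: potency means the concentration at half of the fitted maximal effect; 48 h compound exposure; nearly all actives have a fitted effect of over 60% in size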
How it was run: as §1

SMILES: CC[C@]12C=CCN3CC[C@@]4(c5cc([C@@]6(C(=O)OC)C[C@H]7C[C@@H](C(C)(F)F)CN(Cc8c6[nH]c6ccccc86)C7)c(OC)cc5N(C)[C@H]4[C@@](O)(C(=O)OC)[C@H]1OC(C)=O)[C@@H]32
- Potency [1]: inactive
- Potency [2]: inactive
- Potency [3]: inconclusive: 36.9 µM [cytotoxic, partial curve, poor fit]
- Potency [4]: inactive

SMILES: O=C(c1ccc(OCCN2CCCCC2)cc1)c1c(-c2ccc(O)cc2)sc2cc(O)ccc12
- Potency [1]: inconclusive: 0.104 µM [cytotoxic, full curve, poor fit]
- Potency [3]: active: 3.69 µM
- Potency [4]: inconclusive: 36.9 µM [cytotoxic, single point]

SMILES: CCC1=C[C@@H]2CN(C1)Cc1c([nH]c3ccccc13)[C@@](C(=O)OC)(c1cc3c(cc1OC)N(C)[C@@H]1[C@@](O)(C(=O)OC)[C@H](OC(C)=O)[C@]4(CC)C=CCN5CC[C@]31[C@@H]54)C2
- Potency [3]: active: 23.3 µM
- Potency [4]: active: 7.37 µM

SMILES: CC(C)(C(=O)c1cccnc1)c1cccnc1
- Potency [5]: inactive
- Potency [1]: inactive
- Potency [4]: inconclusive: 0.0117 µM [rising, full curve]

SMILES: CS(=O)(=O)c1ccc(C(=O)Nc2ccc(Cl)c(-c3ccccn3)c2)c(Cl)c1
- Potency [6]: inactive
- Potency [1]: inactive
- Potency [3]: inactive
- Potency [4]: inconclusive: 29.3 µM [cytotoxic, single point]

SMILES: Cc1ccc(C(=O)N(CCCN)[C@@H](c2nc3cc(Cl)ccc3c(=O)n2Cc2ccccc2)C(C)C)cc1
- Potency [7]: active: 0.024 µM
- Potency [4]: active: 0.0676 µM

SMILES: Oc1cc(-c2nc(-c3ccccc3)[nH]c2-c2ccncc2)ccc1Cl
- Potency [5]: inconclusive: 20.8 µM [cytotoxic, single point]
- Potency [4]: active: 2.61 µM

SMILES: COc1cccc2c1C(=O)c1c(O)c3c(c(O)c1C2=O)C[C@@](O)(C(=O)CO)C[C@@H]3O[C@H]1C[C@H](N)[C@H](O)[C@H](C)O1
- Potency [5]: inconclusive: 5.22 µM [cytotoxic, full curve]
- Potency [3]: inconclusive: 14.7 µM [cytotoxic, partial curve, poor fit]
- Potency [4]: inconclusive: 2.08 µM [cytotoxic, full curve]

SMILES: COc1ccc(Nc2cc(-c3cnc(N)nc3)nc(N3CCOCC3)n2)cn1
- Potency [1]: active: 2.61 µM
- Potency [3]: inconclusive: 6.57 µM [cytotoxic, full curve]
- Potency [4]: active: 3.29 µM

SMILES: C[n+]1c2cc(N)ccc2cc2ccc(N)cc21 (tested in a mixture with another compound)
- Potency [5]: active: 7.37 µM
- Potency [1]: active: 0.657 µM
- Potency [4]: inconclusive: 0.827 µM [cytotoxic, full curve, poor fit]

SMILES: CC(C)C[C@H](NC(=O)[C@H](Cc1ccccc1)NC(=O)c1cnccn1)B(O)O
- Potency [5]: active: 0.827 µM
- Potency [2]: active: 0.0465 µM
- Potency [3]: active: 0.233 µM

SMILES: CC(C)c1cnn2c(NCc3ccccc3)cc(N[C@@H](CO)[C@H](O)CO)nc12
- Potency [2]: inconclusive: 0.827 µM [cytotoxic, full curve]
- Potency [3]: inconclusive: 0.737 µM [cytotoxic, full curve]

SMILES: CC[C@H]1CN2CCc3cc(OC)c(OC)cc3[C@H]2C[C@@H]1C[C@@H]1NCCc2cc(OC)c(OC)cc21
- Potency [1]: active: 0.369 µM
- Potency [2]: inconclusive: 11.7 µM [cytotoxic, partial curve, poor fit]

SMILES: CC[C@@H]1C(=O)N(C)c2cnc(Nc3ccc(C(=O)NC4CCN(C)CC4)cc3OC)nc2N1C1CCCC1
- Potency [5]: active: 18.5 µM
- Potency [3]: inconclusive: 29.3 µM [cytotoxic, partial curve, poor fit]

SMILES: C[N+](C)([O-])CCNc1ccc(NCC[N+](C)(C)[O-])c2c1C(=O)c1c(O)ccc(O)c1C2=O
- Potency [1]: inconclusive: 23.3 µM [cytotoxic, single point]
- Potency [4]: inconclusive: 36.9 µM [cytotoxic, single point]

SMILES: COc1ccc(S(=O)(=O)Nc2cccnc2Nc2ccc(O)cc2)cc1
- Potency [2]: inactive
- Potency [3]: inactive

SMILES: Nc1nc(N)c2nc(CNc3ccc(C(=O)NC(CCC(=O)O)C(=O)O)cc3)cnc2n1 (stereo not drawn)
- Potency [1]: inconclusive: 2.08 µM [cytotoxic, full curve]

SMILES: CC[C@@]1(O)C(=O)OCc2c1cc1n(c2=O)Cc2cc3c(CN(C)C)c(O)ccc3nc2-1
- Potency [2]: active: 5.22 µM
- Potency [4]: active: 0.208 µM

SMILES: CC#C[C@]1(O)CC[C@H]2[C@@H]3CCC4=CC(=O)CCC4=C3[C@@H](c3ccc(N(C)C)cc3)C[C@@]21C
- Potency [2]: inconclusive: 23.3 µM [cytotoxic, single point]
- Potency [3]: inconclusive: 26.1 µM [cytotoxic, single point]
- Potency [4]: inconclusive: 36.9 µM [cytotoxic, single point]

Source: PubChem BioAssay (NCATS)
